For assay [1], the target named is FLAG-IGF2BP3 (mouse IGF2BP3 from pHIV-Igf2bp3-3xFLAG-Puro) (mouse) (UniProt Q9CPN8). Description: co-IP; lysates of co-transfected HEK293T cells; immunoprecipitation with anti-IgG, anti-FLAG or anti-MYC antibodies, treated with RNase A (+); blot for FLAG and MYC.
Assay [2] addresses Insulin-like growth factor 2 mRNA-binding protein 3 (IGF2BP3), endogenous in mouse round spermatids (mouse (endogenous in round spermatids)) (UniProt Q9CPN8). The assay is described as follows: co-IP; adult mouse round spermatid lysate; immunoprecipitation with anti-IgG or IGF2BP3 antibodies, treated with RNase A (+) or not (−); blot for IGF2BP3 and YBX2.
The target in assay [3] is MYC-YBX2 (mouse YBX2 from pHIV-Ybx2-3xMYC-Bsd) (mouse) (UniProt Q9Z2C8). Description: co-IP; lysates of co-transfected HEK293T cells; immunoprecipitation with anti-IgG, anti-FLAG or anti-MYC antibodies, treated with RNase A (+); blot for FLAG and MYC.

Sequences of proteins named here, by UniProt entry; tags and fusion partners are left off.
UniProt Q9CPN8: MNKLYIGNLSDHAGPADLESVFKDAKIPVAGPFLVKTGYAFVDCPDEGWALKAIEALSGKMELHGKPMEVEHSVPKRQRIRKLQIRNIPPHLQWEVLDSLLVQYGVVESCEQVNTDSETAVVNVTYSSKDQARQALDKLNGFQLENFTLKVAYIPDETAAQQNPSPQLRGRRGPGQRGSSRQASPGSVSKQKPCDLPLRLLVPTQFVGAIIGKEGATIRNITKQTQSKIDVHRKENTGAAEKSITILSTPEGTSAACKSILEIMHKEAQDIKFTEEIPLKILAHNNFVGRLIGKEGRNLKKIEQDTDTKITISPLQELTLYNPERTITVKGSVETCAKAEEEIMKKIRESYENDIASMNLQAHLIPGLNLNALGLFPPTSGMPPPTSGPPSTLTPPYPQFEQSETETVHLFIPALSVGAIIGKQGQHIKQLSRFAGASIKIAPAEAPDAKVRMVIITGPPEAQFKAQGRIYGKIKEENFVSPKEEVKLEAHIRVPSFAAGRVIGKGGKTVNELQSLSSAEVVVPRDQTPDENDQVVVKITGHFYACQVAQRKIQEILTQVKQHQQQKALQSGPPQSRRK
UniProt Q9Z2C8: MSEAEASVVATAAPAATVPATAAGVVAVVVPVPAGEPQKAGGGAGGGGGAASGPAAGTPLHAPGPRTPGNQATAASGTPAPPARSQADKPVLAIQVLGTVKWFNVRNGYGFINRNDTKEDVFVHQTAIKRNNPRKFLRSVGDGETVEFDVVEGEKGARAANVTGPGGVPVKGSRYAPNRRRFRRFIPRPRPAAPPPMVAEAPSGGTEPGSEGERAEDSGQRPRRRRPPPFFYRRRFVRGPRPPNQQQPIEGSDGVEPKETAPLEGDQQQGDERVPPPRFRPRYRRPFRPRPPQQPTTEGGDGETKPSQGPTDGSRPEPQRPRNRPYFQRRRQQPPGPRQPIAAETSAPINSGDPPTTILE

Results are given in words; binding and its absence hold for the method and conditions named. Binding seen in cells or lysates may run through a third protein. Some entries that bind do so weakly or less than the wild type.

Consider “MYC-YBX2 (mouse YBX2 from pHIV-Ybx2-3xMYC-Bsd) (from UniProt Q9Z2C8 1-360)”, for which the binding entry in assay [1] is “binds”.

As to “YBX2, endogenous in mouse round spermatids (from UniProt Q9Z2C8 1-360)”, the binding result in assay [2] is “binds”.

Consider “FLAG-IGF2BP3 (mouse IGF2BP3 from pHIV-Igf2bp3-3xFLAG-Puro) (from UniProt Q9CPN8 1-579)”, for which the binding entry in assay [3] was “binds”.

The values are drawn from article PMC12811620.
